PubChem BioAssay AID1508597 | Cure First, 2020
Assay: 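Survival screen with siRNA in ovarian cancer cells derived from patients, with or without rucaparib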 (primary screen). System: human ovarian carcinoma lines grown from tumours: OCI-P5x (papillary serous) and OCI-C5x (clear cell). Reagents: siRNA pool against human genes, 1.25 pmol siRNA per well. Timing: 72 h or 96 h, depending on the cell culture. Conditions: rucaparib 20 µM (about IC30) or vehicle, present until read-out. Rucaparib or vehicle: Rucaparib. Cell line: OCI-C5x (clear cell). Measured: 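ATP luminescence measured at 72 or 96 h according to the culture, then normalised and expressed as percent viability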. Scale: viability, normalised: higher = more viable cells remaining. Hit rule: 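a well counts as a hit if its normalised viability is under 80 percent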. Calls: active = viability under 80%; inactive = viability 80% or more.
This is a random part of the about 2,100 reagents, in one setting of the screen. 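Calls flag viability under 80% in either arm, not effects specific to rucaparib; the reference for percent is not stated.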 Entries without a mark were called inactive. A reagent listed more than once was tested more than once; the source does not tell the runs apart. The record does not give: the 100% reference.

Gene,technical replicate,"viability, normalised (%)"
TAF9,1,31.9 (active)
TAF9,2,37.2 (active)
TAF9,3,54 (active)
MYLK3,1,48.8 (active)
MYLK3,2,54.4 (active)
MYLK3,3,52.7 (active)
PLCG1,1,67 (active)
PLCG1,2,62.5 (active)
PLCG1,3,51.2 (active)
CDT1,1,49.2 (active)
CDT1,2,41.2 (active)
CDT1,3,50.3 (active)
IPMK,1,52.4 (active)
IPMK,2,59.9 (active)
IPMK,3,57 (active)
CTPS1,1,40 (active)
CTPS1,2,36.4 (active)
CTPS1,3,42.1 (active)
SOX15,1,32.1 (active)
SOX15,2,39.4 (active)
SOX15,3,46.7 (active)
GAK,1,29.5 (active)
GAK,2,35.5 (active)
GAK,3,48.5 (active)
CAMK2D,1,50.7 (active)
CAMK2D,1,69.9 (active)
CAMK2D,2,61.3 (active)
CAMK2D,2,72.3 (active)
CAMK2D,3,52.1 (active)
CAMK2D,3,61.2 (active)
PHF20,1,55.8 (active)
PHF20,2,40.7 (active)
PHF20,3,35.5 (active)
MYO3A,1,68.8 (active)
MYO3A,2,57.7 (active)
MYO3A,3,66.6 (active)
MCM2,1,55.7 (active)
MCM2,2,59.1 (active)
MCM2,3,54.4 (active)

Ordered by “viability, normalised (%)” (lowest first): 5 of the entries above
Gene,technical replicate,"viability, normalised (%)"
GAK,2,35.5 (active)
GAK,3,48.5 (active)
CAMK2D,1,50.7 (active)
CAMK2D,2,61.3 (active)
CAMK2D,1,69.9 (active)
